The source of these data is doi:10.1101/2020.11.06.371260.

These are yes or no findings as the source states them, for the method shown. For some assays here: Binding seen in cells or lysates may run through a third protein. Some binding calls cover weakened binding; strength is not graded here. Tags and fused reporters may be left off the sequences shown.

Experiment [1] has as its target T1, Arabidopsis SEC15B, yeast two-hybrid fusion (Arabidopsis thaliana) (UniProt F4JHH5).
T1 sequence: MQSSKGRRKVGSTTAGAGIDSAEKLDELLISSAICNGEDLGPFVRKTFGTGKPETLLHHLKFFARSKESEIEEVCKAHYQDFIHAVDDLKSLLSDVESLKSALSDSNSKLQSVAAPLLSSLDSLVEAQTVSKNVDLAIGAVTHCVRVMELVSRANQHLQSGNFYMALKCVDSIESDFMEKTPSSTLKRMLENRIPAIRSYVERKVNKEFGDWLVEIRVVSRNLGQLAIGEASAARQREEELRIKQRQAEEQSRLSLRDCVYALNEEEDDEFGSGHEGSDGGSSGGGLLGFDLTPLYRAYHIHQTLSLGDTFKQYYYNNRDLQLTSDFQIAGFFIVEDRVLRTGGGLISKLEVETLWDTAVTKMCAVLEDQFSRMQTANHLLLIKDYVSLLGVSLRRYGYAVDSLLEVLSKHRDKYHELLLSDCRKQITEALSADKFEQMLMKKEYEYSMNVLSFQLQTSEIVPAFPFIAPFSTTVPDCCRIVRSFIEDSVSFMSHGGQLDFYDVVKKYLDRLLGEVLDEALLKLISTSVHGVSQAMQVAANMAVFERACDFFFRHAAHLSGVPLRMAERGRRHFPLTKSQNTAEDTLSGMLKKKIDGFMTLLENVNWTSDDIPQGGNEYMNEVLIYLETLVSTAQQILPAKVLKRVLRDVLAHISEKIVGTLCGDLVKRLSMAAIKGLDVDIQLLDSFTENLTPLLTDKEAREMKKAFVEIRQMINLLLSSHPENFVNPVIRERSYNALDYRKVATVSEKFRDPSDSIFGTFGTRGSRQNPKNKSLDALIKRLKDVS
Briefly: two-hybrid.

In experiment [2] the target is T2, AtEXO70B1, yeast two-hybrid fusion (Arabidopsis thaliana) (UniProt Q9FGH9).
T2 sequence: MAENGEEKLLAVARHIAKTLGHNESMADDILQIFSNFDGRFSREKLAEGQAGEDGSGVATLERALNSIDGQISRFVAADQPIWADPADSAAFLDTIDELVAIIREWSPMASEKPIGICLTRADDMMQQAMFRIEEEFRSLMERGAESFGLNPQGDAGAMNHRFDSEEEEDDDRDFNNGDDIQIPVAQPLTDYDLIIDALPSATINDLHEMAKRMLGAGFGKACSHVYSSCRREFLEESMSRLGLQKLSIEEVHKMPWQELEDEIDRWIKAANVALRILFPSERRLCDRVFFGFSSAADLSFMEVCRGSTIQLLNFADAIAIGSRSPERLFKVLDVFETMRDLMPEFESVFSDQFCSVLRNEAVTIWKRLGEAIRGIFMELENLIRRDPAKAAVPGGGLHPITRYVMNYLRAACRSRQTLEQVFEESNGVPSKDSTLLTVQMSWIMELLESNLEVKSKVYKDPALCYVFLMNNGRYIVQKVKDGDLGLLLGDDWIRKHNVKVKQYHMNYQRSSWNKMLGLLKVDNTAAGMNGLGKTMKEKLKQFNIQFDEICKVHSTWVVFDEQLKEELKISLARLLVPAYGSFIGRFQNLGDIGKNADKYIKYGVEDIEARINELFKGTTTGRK
Briefly: two-hybrid.

Experiment [3] addresses AtEXO70B1-AB truncation (1 to 388 amino acids), yeast two-hybrid fusion (Arabidopsis thaliana) (UniProt Q9FGH9). Briefly: two-hybrid.
The target in experiment [4] is T3, Arabidopsis SEC15B, BiFC fusion (Arabidopsis thaliana) (UniProt F4JHH5).
T3 sequence: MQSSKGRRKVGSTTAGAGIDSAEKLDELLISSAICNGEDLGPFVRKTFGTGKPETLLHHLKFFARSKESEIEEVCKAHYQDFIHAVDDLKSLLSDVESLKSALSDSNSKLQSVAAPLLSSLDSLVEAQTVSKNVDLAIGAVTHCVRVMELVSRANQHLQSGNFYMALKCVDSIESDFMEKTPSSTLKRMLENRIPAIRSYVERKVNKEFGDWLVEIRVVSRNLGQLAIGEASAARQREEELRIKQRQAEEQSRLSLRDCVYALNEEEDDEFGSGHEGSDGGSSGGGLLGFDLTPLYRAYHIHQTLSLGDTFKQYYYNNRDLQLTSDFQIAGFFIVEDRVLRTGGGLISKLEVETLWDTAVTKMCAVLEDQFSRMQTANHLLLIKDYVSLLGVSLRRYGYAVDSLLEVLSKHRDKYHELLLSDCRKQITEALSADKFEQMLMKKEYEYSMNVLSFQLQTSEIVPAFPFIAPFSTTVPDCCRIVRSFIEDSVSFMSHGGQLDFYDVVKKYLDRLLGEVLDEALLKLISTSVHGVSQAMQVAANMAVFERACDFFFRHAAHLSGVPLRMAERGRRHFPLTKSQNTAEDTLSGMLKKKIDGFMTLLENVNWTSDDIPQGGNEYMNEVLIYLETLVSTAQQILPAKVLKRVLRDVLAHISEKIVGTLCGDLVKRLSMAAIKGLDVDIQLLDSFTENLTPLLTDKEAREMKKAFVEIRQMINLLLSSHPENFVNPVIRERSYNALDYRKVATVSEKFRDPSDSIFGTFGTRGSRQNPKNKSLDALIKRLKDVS
The experiment in a line: split reporter.

The target in experiment [5] is T4, AtEXO70B1 fused C-terminally with nVENUS (Arabidopsis thaliana) (UniProt Q9FGH9).
T4 sequence: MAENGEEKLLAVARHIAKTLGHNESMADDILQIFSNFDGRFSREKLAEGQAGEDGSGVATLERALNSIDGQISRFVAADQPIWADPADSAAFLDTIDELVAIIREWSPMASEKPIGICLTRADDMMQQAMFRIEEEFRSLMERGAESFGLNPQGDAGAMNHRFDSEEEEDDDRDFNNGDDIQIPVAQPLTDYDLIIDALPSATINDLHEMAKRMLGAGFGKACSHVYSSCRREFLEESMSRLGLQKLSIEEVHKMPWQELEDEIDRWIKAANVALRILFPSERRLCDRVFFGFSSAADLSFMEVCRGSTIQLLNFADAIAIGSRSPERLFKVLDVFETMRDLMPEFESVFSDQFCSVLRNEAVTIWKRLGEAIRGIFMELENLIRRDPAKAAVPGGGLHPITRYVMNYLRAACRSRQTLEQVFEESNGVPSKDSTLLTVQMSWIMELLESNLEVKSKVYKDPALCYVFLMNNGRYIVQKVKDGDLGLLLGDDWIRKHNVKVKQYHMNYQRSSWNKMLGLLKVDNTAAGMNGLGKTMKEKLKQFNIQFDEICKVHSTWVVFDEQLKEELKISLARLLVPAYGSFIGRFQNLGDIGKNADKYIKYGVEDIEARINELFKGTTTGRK
Briefly: split reporter.

B1: Arabidopsis EXO84B, yeast two-hybrid fusion (protein, UniProt Q9LTB0 1-752)
chain: MAAKTARSKATPTKENGVRVEEGLSLFKSDKFDADAYVQSKCSINEKDIKQLCSYLLDLKRASAEEMRRSVYANYPAFIRTSKEISDLEGELSSIRNLLSTQATLIHGLADGVNIDDDKVSDESLANGLLNFEDNGLSDLEKWATEFPDHLDALLAERRVDEALAAFDEGEILVSQANEKHTLSSSVLSSLQFAIAERKQKLADQLAKAACQPSTRGGELRSAIAALKRLGDGPRAHTVLLDAHFQRYQYNMQSLRPSSTSYGGAYTAALSQLVFSAISQASSDSLGIFGKEPAYSSELVTWATKQTEAFSLLVKRHALASSAAAGGLRAAAECAQIALGHCSLLEARGLSLCPVLLKHFKPIVEQALEANLKRIEENTAAMAAADDWVLTSPPAGSRHASTAFQNKLTSSAHRFNLMVQDFFEDVGPLLSMQLGSKALEGLFRVFNSYVDVLVRALPGSIEEEDPNFESSCNKIVQMAETEANQLALLANASLLADELLPRAAMKLSLDQTGQRTDDLRRPLDRQNRNPEQREWKRRLLSTVDKLKDAFCRQHALDLIFTEEGDSHLSADMYVNIDENGEDVDFFPSLIFQELFAKLNRMASLAADMFVGRERFAISLLMRLTETVILWLSGDQSFWDDIEEGPRPLGPLGLRQLYLDMKFVICFASQGRYLSRNLHRGTNEIISKALAAFTATGIDPYSELPEDDWFNDICVDAMERLSGKTKGNNGDVHSPTASVSAQSVSSARSHGSY
As for B1, the binding result in experiment [1], in experiment [2] and in experiment [3] was “binds” throughout.

B2: Arabidopsis EXO84B, BiFC fusion (protein, UniProt Q9LTB0 1-752)
chain: MAAKTARSKATPTKENGVRVEEGLSLFKSDKFDADAYVQSKCSINEKDIKQLCSYLLDLKRASAEEMRRSVYANYPAFIRTSKEISDLEGELSSIRNLLSTQATLIHGLADGVNIDDDKVSDESLANGLLNFEDNGLSDLEKWATEFPDHLDALLAERRVDEALAAFDEGEILVSQANEKHTLSSSVLSSLQFAIAERKQKLADQLAKAACQPSTRGGELRSAIAALKRLGDGPRAHTVLLDAHFQRYQYNMQSLRPSSTSYGGAYTAALSQLVFSAISQASSDSLGIFGKEPAYSSELVTWATKQTEAFSLLVKRHALASSAAAGGLRAAAECAQIALGHCSLLEARGLSLCPVLLKHFKPIVEQALEANLKRIEENTAAMAAADDWVLTSPPAGSRHASTAFQNKLTSSAHRFNLMVQDFFEDVGPLLSMQLGSKALEGLFRVFNSYVDVLVRALPGSIEEEDPNFESSCNKIVQMAETEANQLALLANASLLADELLPRAAMKLSLDQTGQRTDDLRRPLDRQNRNPEQREWKRRLLSTVDKLKDAFCRQHALDLIFTEEGDSHLSADMYVNIDENGEDVDFFPSLIFQELFAKLNRMASLAADMFVGRERFAISLLMRLTETVILWLSGDQSFWDDIEEGPRPLGPLGLRQLYLDMKFVICFASQGRYLSRNLHRGTNEIISKALAAFTATGIDPYSELPEDDWFNDICVDAMERLSGKTKGNNGDVHSPTASVSAQSVSSARSHGSY
Take B2: the binding result in experiment [4] and in experiment [5] was “binds” in each case.
